From PMC8505418
Results are given in words; binding and its absence hold for the method and conditions named. Binding seen in cells or lysates may run through a third protein.

Sequences of proteins named here, by UniProt entry; tags and fusion partners are left off.
UniProt Q13148: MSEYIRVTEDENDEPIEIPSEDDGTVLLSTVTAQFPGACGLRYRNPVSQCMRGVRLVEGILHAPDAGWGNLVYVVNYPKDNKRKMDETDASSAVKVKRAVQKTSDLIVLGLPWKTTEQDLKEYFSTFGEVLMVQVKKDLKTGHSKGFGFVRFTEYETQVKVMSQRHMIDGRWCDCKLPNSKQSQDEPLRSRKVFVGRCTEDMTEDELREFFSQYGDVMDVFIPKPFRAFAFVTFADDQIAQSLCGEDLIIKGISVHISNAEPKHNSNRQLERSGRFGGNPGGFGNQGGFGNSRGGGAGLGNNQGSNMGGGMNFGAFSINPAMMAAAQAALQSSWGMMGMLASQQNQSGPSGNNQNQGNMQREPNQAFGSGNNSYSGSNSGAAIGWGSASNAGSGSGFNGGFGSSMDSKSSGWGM

Key:
Assay in all cases: co-IP; GFP-Trap beads on lysates of U2OS cells transfected with EGFP-FLAG-Ku70 wild type or Ser77/78 mutants, UV-irradiated (200 J/m^2) 48 h after transfection; lysis buffer 10 mM Tris-HCl pH 7.5, 100 mM NaCl, 0.5 mM EDTA, 0.5% NP-40; 60 min at 4 °C; western blots for endogenous partners
[1] = target: EGFP-Ku70-WT (pEGFP-C1-FLAG-Ku70, 70 kDa subunit of Ku antigen, wild type) (human) (UniProt P12956)
[2] = target: EGFP-Ku70-SS77/78AA (human) (UniProt P12956)
[3] = target: EGFP-Ku70-SS77/78EE (human) (UniProt P12956)
[4] = target: EGFP-Ku70-SS77/78DD (human) (UniProt P12956)

Row | binding [1] | binding [2] | binding [3] | binding [4] | Substance
1 | no binding | no binding | no binding | no binding | VCP (from UniProt P55072 1-806)
2 |  | no binding | no binding | no binding | TDP43 (from UniProt Q13148 1-414)
